Taken from: PubChem BioAssay AID743454 (Peter MacCallum Cancer Centre, 2014)

Screen: 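Search for knock-downs that restore vorinostat killing in resistant colon cancer cells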 (primary screen)
Cell system: human HCT116-VR colon cancer cells, selected for vorinostat resistance
Reagents: siRNA pool against human genes, 40 nM siRNA pool
Timing: vorinostat for 24 h, read-out about 72 h after transfection
Conditions: vorinostat at 2.5 µM final
Measurement: 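Two measures, CellTiter-Fluor viability and luminescent caspase 3/7 activity, each as fold change against same-plate mock wells, mean of duplicates, then screen-wide robust z-score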
Scale: viability robust z-score: higher = more viable cells than screen typical; caspase robust z-score: higher = more caspase 3/7 activity than screen typical
Hit rule: 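a knock-down is a hit when classed RV1 or RV2 for lowered viability, or CA1 or CA2 for caspase activation; those lethal without drug were dropped; hits were retested singly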
The deposit covers about 18,000 reagents; this is a part drawn at random. 450 of them (2.5%) were called active. 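Single biological run; no consistent viability z cut-off exists, so the class columns, not z-scores, define the calls.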 Reagents against one gene are numbered here. Reagent sequences are not shown.

no.	target	reagent	viability hit class	caspase hit class	viability robust z-score	caspase robust z-score	call
1	TIMM17A	1	no change	no change	-1.15	4.52	inactive
2	WNT10B	1	no change	no change	-0.89	2.35	inactive
3	DLEU7	1	no change	no change	-0.52	-0.16	inactive
4	TXLNGY	1	no change	no change	0.86	-0.18	inactive
5	TXLNGY	2	no change	no change	0.6	-0.08	inactive
6	SLC39A14	1	no change	no change	-0.01	-0.8	inactive
7	CMIP	1	no change	no change	0.48	-0.97	inactive
8	CLDN9	1	no change	no change	1.77	3.44	inactive

Entries above whose gene name begins with T or t:
target	reagent	viability hit class	caspase hit class	viability robust z-score	caspase robust z-score	call
TIMM17A	1	no change	no change	-1.15	4.52	inactive
TXLNGY	1	no change	no change	0.86	-0.18	inactive
TXLNGY	2	no change	no change	0.6	-0.08	inactive

The listing continues.
no.	target	reagent	viability hit class	caspase hit class	viability robust z-score	caspase robust z-score	call
9	BRIP1	1	no change	no change	0.18	-0.73	inactive
10	PPP3CB	1	no change	no change	0.31	0.57	inactive
11	CTSK	1	no change	no change	0.7	-0.6	inactive
12	KHDC3L	1	no change	no change	0.65	-0.09	inactive
13	UBAC1	1	no change	no change	0.66	-0.36	inactive
14	ACP3	1	no change	no change	0.72	0.87	inactive
15	SRPK2	1	no change	no change	1.16	-0.72	inactive
16	IRF6	1	no change	no change	0.85	0.11	inactive
17	ZNF121	1	no change	no change	-2.02	2.08	inactive
18	CEP57	1	no change	no change	-0.33	-0.52	inactive
19	SNX6	1	no change	no change	-0.92	-0.35	inactive
20	SLC4A5	1	no change	no change	0.15	0.37	inactive
21	ZNF839	1	no change	no change	-0.92	-1.27	inactive
22	ALKBH4	1	no change	no change	-1.03	1.02	inactive
23	CD300A	1	no change	no change	0.91	0.19	inactive
